Measurements: PubChem BioAssay AID248 (DTP/NCI, 2004)
The list shows only some results of the screen, not a fair sample: it is rich in T/C values a quarter to a half above the control, in often repeated tests (any T/C) and in doses without a T/C. Other doses and runs of a compound stand elsewhere. T/C: endpoint of the treated group in % of that of the vehicle group. Some entries give survivors of the animals treated and no T/C: the source holds a T/C of zero for them, seemingly a mark for toxic or unscored doses. Some survivor counts are full or nearly so, which does not show that the dose was tolerated: survival well below the control is almost never listed, so the zero probably covers shortened survival too. Counts of survivors are from the toxicity check (mostly the fifth day) where no day follows; animals may have died later. Schedule codes are those of the source, read here as Q, the interval in days (D) or hours (H), X, the number of doses. Some schedules carry Z or #; the key to these is not given. For survival time, this PubChem deposit counts one and a half times the control or more as active, and values a quarter to a half above the control carry no call in these data; other NCI protocols may use other cut-offs. Some entries hold several experiments; the results are listed from low to high. Some T/C values carry the count of animals alive at the toxicity check (mostly the fifth day); without a count, all were alive then.

Tested on: L1210 leukemia ip in BDF1 mice, survival T/C
Assay: NCI In Vivo Anticancer Drug Screen. Data for tumor model L1210 Leukemia (intraperitoneal) in B6D2F1 (BDF1) mice
Settings: T/C endpoint: mean survival time, higher T/C = longer survival
[1] = dose: 100.0 mg/kg/injection, schedule: Q01DX009 (ip), vehicle: Klucel (hydroxypropylcellulose) (HPC)
[2] = dose: 400.0 mg/kg/injection, schedule: Q01DX001 (ip), vehicle: saline
[3] = dose: 400.0 mg/kg/injection, schedule: Q01DX001 (ip), vehicle: carboxymethylcellulose (CMC)

Nc1ccc2ccccc2c1-c1c(N)ccc2ccccc12
survivor count (dose: 150.0 mg/kg/injection, schedule: Q04DX002 (ip), vehicle: saline with Tween-80): 3 of 3

CN(C)C(=O)c1cccc(NCc2ccc3nc(N)nc(N)c3c2)c1
survivor count (dose: 200.0 mg/kg/injection, schedule: Q01DX009 (ip), vehicle: saline with Tween-80): 3 of 6 | survivor count (dose: 400.0 mg/kg/injection, schedule: Q01DX009 (ip), vehicle: saline with Tween-80): 6 of 6

CCc1ccccc1NC(=O)Nc1ccc(OC)cc1
survivor count [1]: 6 of 6 | survivor count (dose: 400.0 mg/kg/injection, schedule: Q01DX009 (ip), vehicle: Klucel (hydroxypropylcellulose) (HPC)): 6 of 6

C/C(=N/NC(N)=S)c1cccc(C(F)(F)F)c1
survivor count (dose: 150.0 mg/kg/injection, schedule: Q01DX009 (ip), vehicle: Klucel (hydroxypropylcellulose) (HPC)): 3 of 6

Cc1ccc([N+](=O)[O-])cc1NC(=O)Nc1cccc(C(F)(F)F)c1
survivor count [1]: 6 of 6

O=[N+]([O-])c1cc([N+](=O)[O-])c(NN(c2ccccc2)c2ccccc2)c([N+](=O)[O-])c1
survivor count (dose: 50.0 mg/kg/injection, schedule: Q01DX Z (ip), vehicle: other): 2 of 6 | survivor count (dose: 75.0 mg/kg/injection, schedule: Q01DX Z (ip), vehicle: other): 0 of 6

CC(=O)/C(=C/c1ccccc1)N=P(c1ccccc1)(c1ccccc1)c1ccccc1
survivor count [2]: 6 of 6

COc1cc(N(CCCl)CCCl)c(OC)cc1C=Nc1cccc(Br)c1
survivor count (dose: 60.0 mg/kg/injection, schedule: Q01DX009 (ip), vehicle: carboxymethylcellulose (CMC)): 5 of 6 | survivor count (dose: 89.0 mg/kg/injection, schedule: Q01DX009 (ip), vehicle: carboxymethylcellulose (CMC)): 2 of 6 | survivor count (dose: 133.0 mg/kg/injection, schedule: Q01DX009 (ip), vehicle: carboxymethylcellulose (CMC)): 0 of 6 | T/C (dose: 177.0 mg/kg/injection, schedule: Q01DX001 (ip), vehicle: carboxymethylcellulose (CMC)): 138 % of control [5 of 6 alive] | survivor count (dose: 200.0 mg/kg/injection, schedule: Q01DX009 (ip), vehicle: carboxymethylcellulose (CMC)): 0 of 6 | survivor count (dose: 300.0 mg/kg/injection, schedule: Q01DX009 (ip), vehicle: carboxymethylcellulose (CMC)): 0 of 6 | T/C [3]: 129 % of control | survivor count [3]: 3 of 6 | survivor count (dose: 600.0 mg/kg/injection, schedule: Q01DX001 (ip), vehicle: carboxymethylcellulose (CMC)): 0 of 6

COc1ccc2nc3cc(Cl)ccc3c(NCC3(c4ccccc4)CCN(C)CC3)c2c1
survivor count (dose: 50.0 mg/kg/injection, schedule: Q04DX003 (ip), vehicle: saline): 5 of 6 | survivor count (dose: 100.0 mg/kg/injection, schedule: Q01DX001 (ip), vehicle: saline): 0 of 6 | survivor count (dose: 200.0 mg/kg/injection, schedule: Q01DX001 (ip), vehicle: saline): 0 of 6 | survivor count [2]: 0 of 6

C[Si](C)(C)C1C2c3ccccc3C1C1(C#N)C(=O)C(Cl)=C(Cl)C(=O)C21C#N (stereo not drawn)
survivor count (dose: 200.0 mg/kg/injection, schedule: Q04DX003 (ip), vehicle: saline with Tween-80): 0 of 6 | survivor count (dose: 400.0 mg/kg/injection, schedule: Q04DX003 (ip), vehicle: saline with Tween-80): 0 of 6

C[N+]1(C)CCS(=O)(=O)CC1
survivor count (dose: 400.0 mg/kg/injection, schedule: Q04DX002 (ip), vehicle: Klucel (hydroxypropylcellulose) (HPC)): 0 of 3

CN(C)/N=C\c1cccnc1
survivor count (dose: 400.0 mg/kg/injection, schedule: Q04DX003 (ip), vehicle: saline): 0 of 6

CC(C)(C)Sc1cc(C#N)ccn1
T/C (dose: 100.0 mg/kg/injection, schedule: Q04DX003 (ip), vehicle: other): 89, 95, 96, 102 % of control | T/C (dose: 200.0 mg/kg/injection, schedule: Q04DX003 (ip), vehicle: other): 91, 96, 99, 126 % of control | T/C (dose: 400.0 mg/kg/injection, schedule: Q04DX003 (ip), vehicle: other): 93, 95, 96, 105 % of control

NCC1C2CCC(C2)C1CCCNCCCC1C2CCC(C2)C1CN (stereo not drawn)
survivor count (dose: 100.0 mg/kg/injection, schedule: Q04DX002 (ip), vehicle: saline with Tween-80): 0 of 3 | survivor count (dose: 200.0 mg/kg/injection, schedule: Q04DX002 (ip), vehicle: saline with Tween-80): 0 of 3 | survivor count (dose: 400.0 mg/kg/injection, schedule: Q04DX002 (ip), vehicle: saline with Tween-80): 0 of 3

CCOP(=S)(NN=C1CCCC1)OCC
survivor count [2]: 2 of 4

C/C(=N/N=C(N)N)c1ccc(F)cc1
survivor count (dose: 60.0 mg/kg/injection, schedule: Q01DX Z (ip), vehicle: carboxymethylcellulose (CMC)): 1 of 6 | survivor count (dose: 120.0 mg/kg/injection, schedule: Q01DX Z (ip), vehicle: carboxymethylcellulose (CMC)): 0 of 6 | survivor count (dose: 120.0 mg/kg/injection, schedule: Q01DX Z (oral), vehicle: carboxymethylcellulose (CMC)): 1 of 6

CC1=NN(c2ccc(S(=O)(=O)O)cc2)C(=O)/C1=C/c1ccc(Cl)cc1
survivor count (dose: 100.0 mg/kg/injection, schedule: Q04DX003 (ip), vehicle: saline): 6 of 6
